Reference: PubChem BioAssay AID1487 (National Center for Advancing Translational Sciences (NCATS), 2009)
The list shows a part of the results. Further columns of the screen follow, without active or inactive calls. Most of these compounds were active or inconclusive in the main read-out, so they are no random draw. Potencies come from curve fits of mixed quality, noted in brackets.

Assay: qHTS Assay for Modulators of Lamin A Splicing
Settings: HeLa LMNA splicing GFP/RFP minigene ratio, 48 h
Method in brief: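 Read-out is the ratio of GFP to DsRed2 object intensity, acquired by 488 nm laser-scanning cytometry on HeLa lamin A-EGFP minigene reporter cells. Compound incubation 48 hrs at 37 °C in Opti-MEM with 2% FBS; DMSO 0.5% final.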

[1] = measured here: RFP viability control channel
[2] = measured here: GFP splicing reporter channel

Row | SMILES | AC50 [1] | AC50 [2]
1 | O=C(CSc1nc2ccccc2o1)Nc1nc(-c2ccccc2)c(-c2ccccc2)s1 | 22.4 µM [rising, single point] | 
2 | CSc1nc(Nc2ccc(C)cc2)c(C#N)c(-c2ccccc2)n1 |  | 2 µM [falling, full curve, poor fit]
3 | c1ccc(COc2ccc(OCCCN3CCCC3)cc2)cc1 |  | 20 µM [rising, partial curve, poor fit]
4 | O=C(CSc1ccc(-c2ccccn2)nn1)Nc1nccs1 | 1.12 µM [falling, full curve, poor fit] | 
5 | CCOc1ccc(C(=O)N2CCC(C(=O)c3ccc4c(c3)OCCO4)CC2)cc1 | 15.8 µM [rising, single point] | 
6 | Cc1ccc(/C=C2/SC(=O)N(CC(=O)N3CCOCC3)C2=O)s1 | 0.355 µM [rising, full curve] | 7.08 µM [rising, partial curve, poor fit]
7 | CCOC(=O)CCC(=O)Nc1ccc([N+](=O)[O-])cc1C |  | 2.82 µM [falling, full curve, poor fit]
8 | O=C(COC(=O)c1ccc(-c2ccc([N+](=O)[O-])cc2)o1)NC(=O)NC12CC3CC(CC(C3)C1)C2 |  | 14.1 µM [rising, single point]
9 | CCN1CCN(c2ncc3c(n2)CCN(Cc2sccc2C)C3)CC1 | 3.55 µM [rising, single point] | 
10 | O=C(Nc1nc(-c2ccc3c(c2)OCO3)cs1)C1COc2ccccc2O1 (centres undefined) | 31.6 µM [rising, single point] | 
11 | COC(=O)c1ccc(NC(=O)CNc2ccccc2)cc1 | 0.316 µM [falling, full curve, poor fit] | 
12 | Clc1ccccc1CSc1nnc(-c2ccco2)c(-c2ccco2)n1 | 17.8 µM [falling, single point] | 
13 | CC1CCN(c2ccc(C(=O)Nc3ccc4c(c3)OCO4)cc2[N+](=O)[O-])CC1 | 28.2 µM [rising, partial curve] | 35.5 µM [rising, single point]
14 | COC(=O)c1ccc(/C=C/C(=O)c2cccc(OC)c2)cc1 | 28.2 µM [falling, single point] | 22.4 µM [falling, single point]
15 | Cc1ccc(/C=N\Nc2cn[nH]c(=O)c2Cl)cc1 | 11.2 µM [falling, partial curve] | 12.6 µM [falling, partial curve]
16 | O=C(Nc1ccc(Br)cc1)C1CCCN1S(=O)(=O)c1cccs1 (centres undefined) | 22.4 µM [rising, single point] | 
17 | O=[N+]([O-])c1cc2oc3c(c2c(C=NCc2ccncc2)c1O)CCCC3 | 35.5 µM [rising, single point] | 
18 | COc1cccc(CNC(=O)c2ccc3c(c2)N(C)C(=O)C2CCCCN32)c1 (centres undefined) |  | 35.5 µM [falling, partial curve]
19 | CCOc1ccc(-c2ncncc2-c2ccc(OC)cc2)c(O)c1 | 10 µM [rising, partial curve, poor fit] | 

Row | SMILES | AC50 [1] | AC50 [2]
20 | O=C(N/N=C1\CC2CC=CC12)c1ccc(COc2ccccc2)cc1 (centres undefined) | 0.0398 µM [falling, full curve, poor fit] | 0.00501 µM [falling, full curve, poor fit]
21 | CC1(C)Cc2ccccc2-c2nc3ccccc3c(=O)n21 | 11.2 µM [rising, partial curve] | 8.91 µM [rising, partial curve]
22 | CCOc1ccc(-c2[nH]ncc2-c2ccc(OC)c(OC)c2)c(O)c1 | 11.2 µM [rising, partial curve] | 35.5 µM [rising, single point]
23 | Cc1ccc(N(CC(=O)NCCSc2ccccn2)S(C)(=O)=O)cc1 | 0.1 µM [falling, full curve] | 1.26 µM [falling, single point]
24 | CCN(CC)S(=O)(=O)c1cc(NC(=O)CCCOc2ccc(C(C)=O)cc2)ccc1C | 12.6 µM [rising, partial curve] | 10 µM [rising, partial curve]
25 | O=c1c2ccccc2nc(/C=C/c2c[nH]c3ccccc23)n1CCO | 22.4 µM [rising, single point] | 
26 | NC(=S)N=Nc1c(O)n(Cc2ccc(Br)cc2)c2ccccc12 | 5.62 µM [rising, single point] | 
27 | Cc1oc2c(c1C(=O)N1CCC(C)CC1)C(=O)c1ccccc1C2=O | 5.62 µM [rising, single point] | 
28 | Cc1ccc(OCC(=O)Nc2ccc3c(c2)nc2n3CCOC2)cc1 | 4.47 µM [rising, full curve, poor fit] | 3.98 µM [rising, full curve, poor fit]
29 | CCCC(=O)Oc1ccccc1C1SCc2cc(C)c(C)cc2CS1 | 20 µM [rising, single point] | 11.2 µM [rising, single point]
30 | CNS(=O)(=O)c1cc(-c2nn3c(C)nnc3c3ccccc23)ccc1C |  | 14.1 µM [falling, single point]
31 | Cc1ccc(C)n1-n1cnc2sc(-c3ccccc3)cc2c1=O | 14.1 µM [rising, single point] | 
32 | O=c1[nH]c(SCc2n[nH]c(=S)n2-c2ccccc2)nc2sc3c(c12)CCC3 | 17.8 µM [rising, single point] | 
33 | CNC(=S)N1C2CCC1CC(NC(=O)NC13CC4CC(CC(C4)C1)C3)C2 (centres undefined) | 0.282 µM [rising, partial curve, poor fit] | 
34 | COc1cc(/C=C(/C#N)c2nc3ccccc3[nH]2)ccc1OCC(=O)Nc1ccccc1C | 4.47 µM [falling, full curve] | 6.31 µM [falling, full curve]
35 | O=C(NCCc1ccc(Cl)cc1)c1ccc(Cn2c(=O)[nH]c3ccccc3c2=O)cc1 | 31.6 µM [falling, single point] | 35.5 µM [falling, single point]
36 | COc1ccc(C=NCC2COc3ccccc3O2)cc1OC (centres undefined) |  | 5.62 µM [rising, single point]
37 | Cc1ccccc1C1CC(c2cccs2)=NN1S(C)(=O)=O (centres undefined) | 22.4 µM [falling, single point] | 35.5 µM [falling, single point]
38 | COc1cccc2sc(Nc3nc(-c4cc5ccccc5oc4=O)cs3)nc12 | 0.0447 µM [rising, full curve, poor fit] | 

Among those listed so far, these contain a cyano group.
Row | SMILES | AC50 [1] | AC50 [2]
2 | CSc1nc(Nc2ccc(C)cc2)c(C#N)c(-c2ccccc2)n1 |  | 2 µM [falling, full curve, poor fit]
34 | COc1cc(/C=C(/C#N)c2nc3ccccc3[nH]2)ccc1OCC(=O)Nc1ccccc1C | 4.47 µM [falling, full curve] | 6.31 µM [falling, full curve]

Remaining list, next part.

Row | SMILES | AC50 [1] | AC50 [2]
39 | Cc1ccc(NC(=O)Nc2nc3ccccc3s2)cc1NC(=O)Nc1nc2ccccc2s1 | 14.1 µM [falling, single point] | 
40 | COC(=O)Cc1cc(=O)[nH]c(/N=C(\N)Nc2ccc(C)cc2)n1 |  | 6.31 µM [rising, single point]
41 | O=C(Nc1ccccc1SCC1CSc2nc3ccccc3c(=O)n21)c1cccc(Cl)c1 (centres undefined) | 6.31 µM [rising, partial curve] | 
42 | COc1cc(-c2nc(-c3ccccc3)c(-c3cc([N+](=O)[O-])ccc3C)[nH]2)cc(OC)c1OC | 15.8 µM [rising, single point] | 
43 | CC1=C(/C=C/C(C)=C/C=C/C(C)=C/C=C/C=C(C)/C=C/C=C(C)/C=C/C2=C(C)CCCC2(C)C)C(C)(C)CCC1 | 35.5 µM [falling, single point] | 3.16 µM [falling, partial curve, poor fit]
44 | CCOc1ccccc1NC(=O)c1cc2cc(C)ccc2n1C | 0.708 µM [rising, full curve] | 0.282 µM [rising, full curve, poor fit]
45 | O=C(/C=C/c1ccc(Br)cc1)NC(=O)c1ccccc1O | 22.4 µM [rising, single point] | 
46 | C=CCNc1ncnc2c1cnn2-c1cccc(C)c1 | 5.62 µM [rising, partial curve, poor fit] | 
47 | CN(Cc1cnccn1)C(=O)CC1C(=O)NCCN1Cc1cccc(Oc2ccccc2)c1 (centres undefined) |  | 35.5 µM [falling, single point]
48 | CCOC(=O)N1CCC(NC(=O)c2cnn3c2NC(c2ccco2)CC3C(F)(F)F)CC1 (centres undefined) | 10 µM [rising, partial curve] | 5.01 µM [rising, partial curve]
49 | O=C(NCC(c1ccc2c(c1)OCO2)N1CCN(c2ccc(F)cc2)CC1)c1cccc([N+](=O)[O-])c1 (centres undefined) | 11.2 µM [falling, partial curve] | 10 µM [falling, partial curve, poor fit]
50 | CCOC(=O)N1CCN(C(=O)COc2cccc3c2CCN(Cc2cccc(C)c2)C3=O)CC1 | 25.1 µM [rising, single point] | 
51 | Cc1nnc(SCc2ccc(C(=O)Nc3cc(Cl)ccc3C)cc2)s1 |  | 35.5 µM [rising, single point]
52 | Cc1c(CCC(=O)O)c(=O)oc2cc3occ(-c4ccc(F)cc4)c3cc12 | 15.8 µM [rising, single point] | 
53 | COc1cc(-c2ccc(NC(=O)NC3CC3)c(OC)c2)ccc1NC(=O)NC1CC1 |  | 10 µM [falling, partial curve]
54 | COc1ccc(Nc2ncnc3c2c(-c2ccccc2)cn3-c2ccc(C)c(Cl)c2)cc1OC | 0.0224 µM [falling, full curve, poor fit] | 
55 | COc1ccc(C2=Nc3ccccc3OC2)cc1 | 15.8 µM [rising, single point] | 
56 | Cc1cc(Br)cc2c(C(=O)Nc3c(C)n(C)n(-c4ccccc4)c3=O)cc(-c3cccs3)nc12 | 35.5 µM [rising, single point] | 
